# Data taken from PubChem BioAssay AID624291 (National Center for Advancing Translational Sciences (NCATS), 2012).
# Hit rate of the full screen: of about 350,000 compounds, about 220 (0.063%) were called active. This list was built around the results that the source calls inconclusive (neither active nor inactive); the mix of calls is not that of the screen. The call rests on the fitted dose curve; in most records, active means well fitted activation curve with a large enough effect; inconclusive means small, poorly fitted or top-dose-only effect; inactive means no such curve, though single readings can be large or run the other way. Potencies of inconclusive entries are doubtful fits and often do not repeat.
# Experiment: qHTS for Activators of Integrin-Mediated Alleviation for Muscular Dystrophy; further: nearly all actives have a fitted effect of over 60% in size;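 on activation: 100% = response of the positive control SU9516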
# Conditions: alpha7betagal myoblasts, beta-gal FDG fluorescence, 48 h; activation: at 38.3 µM (top of the series)
# Method in brief: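 alpha7betagal+/- myoblasts (passage 13, 250/well) treated 48 h at 37C with compounds at 1:260 dilution of DMSO stock. Lysed, then beta-galactosidase activity read as FDG fluorescence (ex 480/em 540) after 30 min, with pre-read for autofluorescence.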
# Potency means the concentration at half of the fitted maximal effect.
Structure (SMILES),Potency,activation
COc1ccc(CCNC(=O)c2cccc(S(=O)(=O)N3CCCCCC3)c2)cc1,"inconclusive: 2.82 µM [activator, single point]",
O=C(NC(C(=O)N/N=C/c1cc([N+](=O)[O-])ccc1O)c1n[nH]c(=O)c2ccccc12)c1ccccc1 (stereo not drawn),,inactive: 2.16%
CCCn1c(N)c(C(=O)CN(C)CC(=O)Nc2cccc(F)c2)c(=O)[nH]c1=O,"inconclusive: 5.01 µM [activator, single point]",
O=C1c2ccccc2C(=O)N1CCc1c(-c2ccccc2)[nH]c2ccccc12,,inactive: 20.2%
Cc1onc(-c2c(F)cccc2Cl)c1C(=O)OCC(=O)N1C(C)CCCC1C (stereo not drawn),"inconclusive: 1.26 µM [activator, partial curve, poor fit]",
CC(=O)c1c(C)[nH]c(C(=O)Nc2cccc(S(=O)(=O)N3CCOCC3)c2)c1C,"inconclusive: 17.8 µM [activator, partial curve, poor fit]",
CCC(C)[C@H](NC(=O)C1CC(=O)N(c2ccc(OC)cc2)C1)C(=O)NC1CCCC1 (stereo partly drawn),"inconclusive: 5.01 µM [activator, single point]",
Cc1ccc(C(=O)COC(=O)C(C)N2C(=O)C3C4CCC(C4)C3C2=O)cc1C (stereo not drawn),"inconclusive: 2.51 µM [activator, single point]",
Cc1ccc(NC(=O)O/N=C/c2c(C)nn(C(C)(C)C)c2C)cc1Cl,,inactive: 34.8%
Cc1ccc(NC(=O)C(C)Sc2nc(=O)cc(N)n2-c2ccccc2)cc1 (stereo not drawn),"inconclusive: 22.4 µM [activator, partial curve, poor fit]",
CN(C)C(CNC(=O)c1ccc(NC(=O)CC#N)cc1)c1ccccc1 (stereo not drawn),"inconclusive: 1.58 µM [activator, single point]",
CCCCSc1nsc(NC(C)=O)n1,,inactive: -8.76%
Cc1ccc(CNCCC2=CCCCC2)cc1,"inconclusive: 1.58 µM [activator, partial curve, poor fit]",
CCn1c(C)c(C(C)=O)c(N2CCC(C(N)=O)CC2)nc1=S,"inconclusive: 11.2 µM [activator, partial curve, poor fit]",
COc1ccccc1N1CN(CCc2ccccc2)CNC1=S,"inconclusive: 3.98 µM [activator, single point]",
COc1ccccc1-n1c(CNC(=O)c2ccc(S(=O)(=O)N3CCCCC3)cc2)n[nH]c1=S,"inconclusive: 3.16 µM [activator, partial curve, poor fit]",
Cc1cc2nc3c(nc2cc1C)C(O)=C3O,"inconclusive: 5.01 µM [activator, single point]",
CCOc1ccccc1NC(=O)N1CCc2ccccc2C1,"inconclusive: 5.01 µM [activator, single point]",
COc1cccc(NC(=O)c2cncs2)c1,"inconclusive: 3.16 µM [activator, single point]",
CSc1cccc(NC(=O)c2ccc(CN3CCc4ccccc4C3)cc2)c1,,inactive: -2.04%
O=C(Cn1cnc2ccccc21)N/N=C/C(Br)=C/c1ccccc1,,inactive: -45.1%
S=C(Nc1ccccn1)NC1CCCCC1,,inactive: -6.94%

# Structures from the list above containing two or more sulfur atoms (two):
Structure (SMILES),Potency,activation
CCCCSc1nsc(NC(C)=O)n1,,inactive: -8.76%
COc1ccccc1-n1c(CNC(=O)c2ccc(S(=O)(=O)N3CCCCC3)cc2)n[nH]c1=S,"inconclusive: 3.16 µM [activator, partial curve, poor fit]",

# More results:

Structure (SMILES),Potency,activation
CS(=O)(=O)N1CCN(c2ccccc2NC(=S)NC(=O)c2cccs2)CC1,,inactive: -18%
CCOC(=O)c1c(CN2CCOCC2)n(-c2ccccc2)c2cc(Br)c(O)c(CN(C)C)c12,"inconclusive: 31.6 µM [activator, partial curve, poor fit]",
Cc1c(C(=O)NC2CC2)oc2ccccc12,"inconclusive: 3.16 µM [activator, partial curve, poor fit]",
Cc1c(C)[n+](=O)c(-c2ccc(F)cc2)c(C)n1[O-],"inconclusive: 22.4 µM [activator, single point]",
Cc1nn(-c2ccccc2)c(Cl)c1/C=C/C(=O)c1ccccc1,,inactive: -38%
S=C(NCc1ccccc1)NCc1ccccn1,"inconclusive: 11.2 µM [activator, partial curve, poor fit]",
COCCNc1ccc(-c2n[nH]c(=O)c3ccccc23)cc1[N+](=O)[O-],"inconclusive: 20 µM [activator, single point]",
S=C(Nc1ccccc1)c1ccccn1,,inactive: -59.4%
O=C(O)CC/C(=N/Nc1ccc([N+](=O)[O-])cc1)C(=O)O,"inconclusive: 5.01 µM [activator, single point]",
Cc1cccc(C(=O)Nc2cccc(C(=O)Nc3cc(C)ccn3)c2)c1,"inconclusive: 3.55 µM [activator, single point]",
O=C(COC(=O)c1ccc2ccccc2n1)Nc1cccc(S(=O)(=O)NC2=NCCCCC2)c1,,inactive: -25.8%
Cc1noc(/C=C/N(C)C)c1S(=O)(=O)N1CCCC(C(=O)NC(C)c2ccccc2)C1 (stereo not drawn),"inconclusive: 6.31 µM [activator, partial curve, poor fit]",
CCN(CC)C(=O)c1sc(NC(=O)c2cccs2)c(C#N)c1C,"inconclusive: 3.16 µM [activator, full curve, poor fit]",
CC(C)N(C)C(=O)c1ccc(OC2CCN(CCc3ccccc3)CC2)cc1,"inconclusive: 5.01 µM [activator, single point]",
O=C(Cn1c(=O)cnc2ccccc21)NNC(=O)c1ccccc1Cl,"inconclusive: 10 µM [activator, partial curve, poor fit]",
CCOC(=O)C1CCCN(S(=O)(=O)c2ccc(S(=O)(=O)N(CC)CC)cc2)C1 (stereo not drawn),,inactive: -41.5%
Cc1nc2ccc(NC(=O)c3ccc4ccccc4n3)cc2s1,"inconclusive: 4.47 µM [activator, full curve, poor fit]",
Cc1nn(-c2ccc(C(=O)N3CCN(S(=O)(=O)c4ccccc4C(F)(F)F)CC3)cc2)c(C)c1Cl,"inconclusive: 0.501 µM [activator, full curve, poor fit]",
COc1ccc(C)cc1NC(=O)Nc1ccccc1SC,"inconclusive: 28.2 µM [activator, single point]",
CCC(=O)N1c2ccc(S(=O)(=O)NCCc3ccccc3)cc2CC1C (stereo not drawn),"inconclusive: 4.47 µM [activator, single point]",
CCCn1c(N)c(C(=O)CSc2nc(C)nc3sc(C)c(C)c23)c(=O)[nH]c1=O,,inactive: 15.2%
